This is an account of results in PMC4066787.

In the assay the target is histone deacetylase protein HDAC1 (mouse (endogenous in R1 ESCs)), O09106. Nature of the assay: affinity purification with mass spectrometry; two-step IP-iPOND in native (non-fixative) conditions: sonicated nuclear extracts (about mononucleosome size) of ESCs pulsed 10 min with EdU, immunoprecipitated with goat anti-HDAC1 antibody, eluted with competitor peptide, re-purified on streptavidin magnetic beads via biotin-EdU nascent DNA; high-resolution mass spectrometry. The following applies: remark: other sources report otherwise.

No constants are given. Whether binding was seen depends on the method and setting. In cells and extracts the contact can be indirect. These calls come from enrichment with a bait or labelling near it, and not all partners need be listed.

B1: epigenetic regulator UHRF1 protein, Q8VDF2 1-782 (protein)
chain: MWIQVRTMDGKETHTVNSLSRLTKVQELRKKIEEVFHVEPQLQRLFYRGKQMEDGHTLFDYDVRLNDTIQLLVRQSLALPLSTKERDSELSDSDSGYGVGHSESDKSSTHGEGAAEADDKTVWEDTDLGLYKVNEYVDVRDNIFGAWFEAQVVQVQKRALSEDEPCSSSAVKTSEDDIMYHVKYDDYPEHGVDIVKAKNVRARARTVIPWENLEVGQVVMANYNVDYPRKRGFWYDVEICRKRQTRTARELYGNIRLLNDSQLNNCRIMFVDEVLMIELPKERRPLIASPSQPPPALRNTGKSGPSCRFCKDDENKPCRKCACHVCGGREAPEKQLLCDECDMAFHLYCLKPPLTSVPPEPEWYCPSCRTDSSEVVQAGEKLKESKKKAKMASATSSSRRDWGKGMACVGRTTECTIVPANHFGPIPGVPVGTMWRFRVQVSESGVHRPHVAGIHGRSNDGAYSLVLAGGYEDDVDNGNYFTYTGSGGRDLSGNKRTAGQSSDQKLTNNNRALALNCHSPINEKGAEAEDWRQGKPVRVVRNMKGGKHSKYAPAEGNRYDGIYKVVKYWPERGKSGFLVWRYLLRRDDTEPEPWTREGKDRTRQLGLTMQYPEGYLEALANKEKSRKRPAKALEQGPSSSKTGKSKQKSTGPTLSSPRASKKSKLEPYTLSEQQANLIKEDKGNAKLWDDVLTSLQDGPYQIFLSKVKEAFQCICCQELVFRPVTTVCQHNVCKDCLDRSFRAQVFSCPACRFELDHSSPTRVNQPLQTILNQLFPGYGSGR
With B1, the binding entry is listed as “binds”.
